Reference: PubChem BioAssay (NCATS)
Inconclusive results, whose numbers are uncertain, are shown with a selection of clear calls. Potencies of inconclusive entries are doubtful fits and often do not repeat. The source made the active and inactive calls. Calls come from the whole dose curve; as a rule, active = well fitted cell-killing curve with a large enough effect; inconclusive = small, poorly fitted or top-dose-only effect, or effect the other way; inactive = no such curve, though single readings can be large or run the other way.

What was measured:
[1] = Quantitative High-Throughput drug screen in 47 multiple myeloma cell lines against the NCATS MIPE library collection: JJN3_DSMZ cell viability assay (AID 1918966; note: nearly all actives have a fitted effect of over 50% in size)
Outline: (§1)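 Myeloma cells (500 per well) were exposed to MIPE 4.0 compounds by pin transfer and incubated 48 hours at 37C, 5% CO2. Viability was read as ATP by CellTiter-Glo luminescence, normalised to DMSO (100%) and media-only (0%) wells.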

[2] = Quantitative High-Throughput drug screen in 47 multiple myeloma cell lines against the NCATS MIPE library collection: H1112_PLB cell viability assay (AID 1918967; note: nearly all actives have a fitted effect of over 30% in size); conditions: H1112 myeloma cells viability, ATP luminescence, 48 h; viability: at 45.8 µM (top of the series)
Outline: as §1

[3] = Quantitative High-Throughput drug screen in 47 multiple myeloma cell lines against the NCATS MIPE library collection: KMS12BM_JCRB cell viability assay (AID 1918971); note: nearly all actives have a fitted effect of over 35% in size
Outline: (§2)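 CellTiter-Glo luminescence (ATP) after 48 h compound exposure, 37C/5% CO2; 500 cells/well; MIPE 4.0 approved/investigational drugs pinned in; DMSO = 100%, media only = 0% viability.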

[4] = Quantitative High-Throughput drug screen in 47 multiple myeloma cell lines against the NCATS MIPE library collection: KMS12PE_JCRB cell viability assay (AID 1918972); conditions: KMS12PE myeloma viability, CellTiter-Glo ATP, 48 h; viability: at 45.8 µM (top of the series); note: nearly all actives have a fitted effect of over 30% in size
Outline: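 Viability readout: CellTiter-Glo luminescence following 5 min room-temperature incubation with reagent. Prior exposure: 48 h, 37C, humidified 5% CO2, 500 cells per well.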

[5] = Quantitative High-Throughput drug screen in 47 multiple myeloma cell lines against the NCATS MIPE library collection: KMS20_JCRB cell viability assay (AID 1918973); conditions: CellTiter-Glo ATP, 48 h; viability (% of DMSO): at 45.8 µM (top of the series); note: nearly all actives have a fitted effect of over 45% in size
Outline: as §1

[6] = Quantitative High-Throughput drug screen in 47 multiple myeloma cell lines against the NCATS MIPE library collection: KMS21BM_JCRB cell viability assay (AID 1918974); conditions: ATP luminescence, 48 h; viability: at 45.8 µM (top of the series) unless noted
Outline: as §1

[7] = Quantitative High-Throughput drug screen in 47 multiple myeloma cell lines against the NCATS MIPE library collection: KMS26_JCRB cell viability assay (AID 1918975); conditions: KMS26 myeloma cells viability, CellTiter-Glo ATP, 48 h; viability (% of DMSO): at 45.8 µM (top of the series); note: nearly all actives have a fitted effect of over 45% in size
Outline: as §2

[8] = Quantitative High-Throughput drug screen in 47 multiple myeloma cell lines against the NCATS MIPE library collection: KMS27_JCRB cell viability assay (AID 1918970); conditions: KMS27 myeloma cells, CellTiter-Glo ATP viability, 48 h; viability (% of DMSO): at 45.8 µM (top of the series) unless noted; note: nearly all actives have a fitted effect of over 30% in size
Outline: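 Viability inhibition screen, 48 h compound exposure, luminescent ATP read-out.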

[9] = Quantitative High-Throughput drug screen in 47 multiple myeloma cell lines against the NCATS MIPE library collection: MMM1_PLB cell viability assay (AID 1918976); note: nearly all actives have a fitted effect of over 35% in size
Outline: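 Cells were exposed to library compounds for 48 hours, after which ATP was measured by CellTiter-Glo. Signal was taken as median relative luminescence units.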

[10] = Quantitative High-Throughput drug screen in 47 multiple myeloma cell lines against the NCATS MIPE library collection: Karpas25_ECACC cell viability assay (AID 1918968; note: nearly all actives have a fitted effect of over 35% in size); conditions: Karpas25 myeloma viability, CellTiter-Glo ATP, 48 h; viability (% of control): at 45.8 µM (top of the series)
Outline: as §1
Potency is the fitted concentration of half-maximal effect.

Structure (SMILES) | Potency [1] | Potency [2] | Potency [3] | Potency [4] | Potency [5] | Potency [6] | Potency [7] | viability (% of DMSO) [5] | Potency [8] | Potency [9] | Potency [10]
NC(=O)NO | active: 2.35 µM | active: 2.96 µM | active: 1.48 µM | active: 0.833 µM | active: 0.0935 µM | inconclusive: 0.132 µM [cytotoxic, full curve, poor fit] | active: 1.18 µM |  |  |  | 
CS[C@H]1SC[C@@H]2C(=O)N(C)[C@H](C(C)C)C(=O)OC[C@H](NC(=O)c3cnc4ccccc4n3)C(=O)N[C@H](C)C(=O)N(C)[C@@H]1C(=O)N(C)[C@H](C(C)C)C(=O)OC[C@H](NC(=O)c1cnc3ccccc3n1)C(=O)N[C@H](C)C(=O)N2C | active: 0.0053 µM | active: 0.0118 µM | active: 0.003 µM |  |  |  |  | inconclusive: 6.75% [cytotoxic] |  |  | 
CC(C)(O)CC(=O)NCCn1ccc2ncnc(Nc3ccc(Oc4cccc(C(F)(F)F)c4)c(Cl)c3)c21 | inconclusive: 33.2 µM [cytotoxic, partial curve, poor fit] | inconclusive: 4.69 µM [cytotoxic, partial curve, poor fit] |  |  | inconclusive: 37.2 µM [cytotoxic, partial curve, poor fit] | inconclusive: 33.2 µM [rising, partial curve] |  |  | inconclusive: 9.35 µM [cytotoxic, partial curve, poor fit] | active: 20.9 µM | 
Cn1cc(C=CC(=O)c2cccc(F)c2)cc1C=CC(=O)NO | inconclusive: 20.9 µM [cytotoxic, partial curve, poor fit] | inconclusive: 13.2 µM [cytotoxic, partial curve] | inconclusive: 14.8 µM [cytotoxic, partial curve, poor fit] | active: 14.8 µM | inconclusive: 10.5 µM [cytotoxic, full curve, poor fit] | active: 4.69 µM |  |  |  | inconclusive: 20.9 µM [cytotoxic, partial curve, poor fit] | 
CCCc1cc(C(N)=S)ccn1 | inactive | inactive | inactive |  | inactive | inconclusive: 9.35 µM [rising, full curve] | inconclusive: 0.0332 µM [rising, full curve, poor fit] |  |  | inconclusive: 0.0033 µM [rising, full curve, poor fit] | 
COc1cc2ncnc(Nc3cccc(Cl)c3)c2cc1OC | active: 33.2 µM | inconclusive: 0.235 µM [cytotoxic, full curve, poor fit] |  | active: 20.9 µM | inconclusive: 37.2 µM [cytotoxic, single point] |  |  |  |  | active: 11.8 µM | 
CS(=O)(=O)c1ccc([C@@H](O)[C@@H](CO)NC(=O)C(Cl)Cl)cc1 | inconclusive: 0.0296 µM [cytotoxic, full curve, poor fit] | inactive | inactive | active: 2.35 µM | inconclusive: 2.09 µM [cytotoxic, full curve, poor fit] | inconclusive: 0.148 µM [cytotoxic, full curve, poor fit] | inactive |  |  | inconclusive: 0.526 µM [cytotoxic, full curve, poor fit] | 
OCc1ccccc1O[C@@H]1O[C@H](CO)[C@H](O)[C@H](O)[C@H]1O | inconclusive: 0.0053 µM [rising, full curve, poor fit] | inconclusive: 23.5 µM [cytotoxic, single point] | inconclusive: 0.003 µM [rising, full curve, poor fit] |  | inactive |  | inactive |  |  | inconclusive: 0.003 µM [rising, full curve, poor fit] | 
C=C1C[C@@]2(O)O[C@@]3(C[C@H]2C(C)C)[C@H](C)CC[C@H]13 | inactive |  | inactive | inactive | inactive | inconclusive: 0.0118 µM [cytotoxic, full curve, poor fit] | inconclusive: 37.2 µM [cytotoxic, single point] |  |  | inconclusive: 0.0209 µM [rising, full curve, poor fit] | inconclusive: 16.6 µM [cytotoxic, partial curve]
CCOC(=O)[C@H]1O[C@H]1C(=O)N[C@@H](CC(C)C)C(=O)NCCC(C)C | inconclusive: 4.69 µM [cytotoxic, full curve, poor fit] |  | active: 10.5 µM | inactive |  | inconclusive: 33.2 µM [rising, partial curve] | inconclusive: 0.0012 µM [rising, full curve, poor fit] |  |  | inconclusive: 2.09 µM [cytotoxic, full curve, poor fit] | inconclusive: 0.001 µM
CCOC(=O)[C@H](CCc1ccccc1)N[C@@H](C)C(=O)N1CCCC1C(=O)O (stereo partly specified) | inactive |  | inactive |  | inactive | inconclusive: 5.9 µM [cytotoxic, partial curve, poor fit] | inactive |  | inconclusive: 26.4 µM [cytotoxic, partial curve, poor fit] | inconclusive: 26.4 µM [cytotoxic, partial curve, poor fit] | 
C#Cc1cccc(Nc2ncnc3cc(OCCOC)c(OCCO)cc23)c1 | inconclusive: 4.18 µM [cytotoxic, partial curve, poor fit] |  | inconclusive: 18.7 µM [cytotoxic, partial curve, poor fit] |  | inconclusive: 2.09 µM [cytotoxic, full curve, poor fit] | active: 0.132 µM | inconclusive: 5.9 µM [cytotoxic, full curve, poor fit] |  |  | inconclusive: 6.62 µM [cytotoxic, partial curve, poor fit] | active: 1.18 µM
Cc1nnc(NS(=O)(=O)c2ccc(N)cc2)s1 | inconclusive: 14.8 µM [cytotoxic, partial curve, poor fit] |  | inconclusive: 41.8 µM [cytotoxic, single point] |  | inconclusive: 3.72 µM [cytotoxic, partial curve, poor fit] | active: 0.418 µM | inconclusive: 20.9 µM [cytotoxic, partial curve, poor fit] |  |  | inactive | active: 8.33 µM
CC[C@]12C=CCN3CC[C@@]4(c5cc([C@@]6(C(=O)OC)C[C@H]7C[C@@H](C(C)(F)F)CN(Cc8c6[nH]c6ccccc86)C7)c(OC)cc5N(C)[C@H]4[C@@](O)(C(=O)OC)[C@H]1OC(C)=O)[C@@H]32 | active: 1.48 µM |  |  | active: 0.0074 µM |  | inconclusive: 33.2 µM [rising, partial curve, poor fit] |  |  | inconclusive: 33.2 µM [rising, single point] |  | 
CC(=O)O[C@H]1C[C@@H]2CC[C@H]3[C@H]4C[C@H]([N+]5(C)CCCCC5)[C@@H](OC(C)=O)[C@@]4(C)CC[C@@H]3[C@@]2(C)C[C@H]1[N+]1(C)CCCCC1 | inconclusive: 18.7 µM [cytotoxic, single point] |  | inactive |  | inactive | inconclusive: 33.2 µM [rising, single point] | inconclusive: 52.6 µM [cytotoxic, single point] |  |  | inconclusive: 26.4 µM [cytotoxic, partial curve, poor fit] | 
C#C[C@]1(O)CC[C@@H]2[C@@H]3CCC4=CC(=O)CC[C@@H]4[C@H]3CC[C@@]21CC | inconclusive: 4.69 µM [cytotoxic, partial curve, poor fit] |  |  |  |  |  | inactive |  |  | active: 9.35 µM | inconclusive: 5.9 µM [cytotoxic, single point]
Nc1[nH]nc2nnc(-c3c(-c4ccccc4)nn4ccccc34)cc12 | inconclusive: 0.0019 µM [rising, full curve, poor fit] |  | inactive |  |  | inconclusive: 0.662 µM [cytotoxic, full curve, poor fit] |  |  |  | inconclusive: 20.9 µM [cytotoxic, partial curve, poor fit] | active: 1.66 µM
C[C@@H](N)C1CCC(C(=O)Nc2ccncc2)CC1 (stereo partly specified) | inactive |  | inconclusive: 0.0023 µM [rising, full curve, poor fit] | inconclusive: 23.5 µM [cytotoxic, single point] | inactive |  | inconclusive: 23.5 µM [rising, single point] |  | inconclusive: 0.0037 µM [cytotoxic, full curve, poor fit] | inconclusive: 0.0662 µM [rising, full curve, poor fit] | 
CC[C@H]1CN2CCc3cc(OC)c(OC)cc3[C@H]2C[C@@H]1C[C@@H]1NCCc2cc(OC)c(OC)cc21 | active: 0.209 µM |  | active: 0.209 µM |  |  | active: 0.264 µM |  |  | active: 0.148 µM |  | 
CCC1=C[C@@H]2CN(C1)Cc1c([nH]c3ccccc13)[C@@](C(=O)OC)(c1cc3c(cc1OC)N(C)[C@@H]1[C@@](O)(C(=O)OC)[C@H](OC(C)=O)[C@]4(CC)C=CCN5CC[C@]31[C@@H]54)C2 | active: 7.43 µM |  |  |  |  | active: 0.0332 µM |  |  |  |  | active: 0.0187 µM
COc1cc2c(Oc3ccc4[nH]c(C)cc4c3F)ncnc2cc1OCCCN1CCCC1 | active: 20.9 µM |  |  |  |  | inconclusive: 33.2 µM [rising, partial curve, poor fit] |  |  | inconclusive: 8.33 µM [cytotoxic, single point] |  | 
O[C@@H](CNC[C@H](O)[C@H]1CCc2cc(F)ccc2O1)[C@@H]1CCc2cc(F)ccc2O1 | inconclusive: 18.7 µM [cytotoxic, partial curve, poor fit] |  | active: 23.5 µM |  |  | active: 23.5 µM |  |  |  |  | inconclusive: 26.4 µM [cytotoxic, single point]

Two compounds from above, showing only Potency [1] and viability (% of DMSO) [5]:
Structure (SMILES) | Potency [1] | viability (% of DMSO) [5]
CS[C@H]1SC[C@@H]2C(=O)N(C)[C@H](C(C)C)C(=O)OC[C@H](NC(=O)c3cnc4ccccc4n3)C(=O)N[C@H](C)C(=O)N(C)[C@@H]1C(=O)N(C)[C@H](C(C)C)C(=O)OC[C@H](NC(=O)c1cnc3ccccc3n1)C(=O)N[C@H](C)C(=O)N2C | active: 0.0053 µM | inconclusive: 6.75% [cytotoxic]
CC(C)(O)CC(=O)NCCn1ccc2ncnc(Nc3ccc(Oc4cccc(C(F)(F)F)c4)c(Cl)c3)c21 | inconclusive: 33.2 µM [cytotoxic, partial curve, poor fit] | 
